Our source for the binding values is doi:10.1101/2024.07.22.24310683.

Sequences of proteins named here, by UniProt entry; tags and fusion partners are left off. A change or cut given only in a name is not applied to a line headed by its entry. A line that says so, or that is headed by a name, gives the form on record, which may keep a tag or linker.
HA-tagged AP2σ2 p.Arg10Trp variant (P53680, form named): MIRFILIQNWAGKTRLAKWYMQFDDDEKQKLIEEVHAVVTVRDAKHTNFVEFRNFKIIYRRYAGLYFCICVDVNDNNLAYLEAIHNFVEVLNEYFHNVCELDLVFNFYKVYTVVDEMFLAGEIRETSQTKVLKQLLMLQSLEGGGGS
HA-tagged wild-type AP2σ2 (Adaptor-Related Protein Complex 2 Sigma-1 Subunit) (P53680, form named): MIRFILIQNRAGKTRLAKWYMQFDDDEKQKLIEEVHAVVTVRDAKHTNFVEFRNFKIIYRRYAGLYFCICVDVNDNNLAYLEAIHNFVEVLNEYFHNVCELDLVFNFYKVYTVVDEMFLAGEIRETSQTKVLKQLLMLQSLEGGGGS
UniProt Q9NSY1: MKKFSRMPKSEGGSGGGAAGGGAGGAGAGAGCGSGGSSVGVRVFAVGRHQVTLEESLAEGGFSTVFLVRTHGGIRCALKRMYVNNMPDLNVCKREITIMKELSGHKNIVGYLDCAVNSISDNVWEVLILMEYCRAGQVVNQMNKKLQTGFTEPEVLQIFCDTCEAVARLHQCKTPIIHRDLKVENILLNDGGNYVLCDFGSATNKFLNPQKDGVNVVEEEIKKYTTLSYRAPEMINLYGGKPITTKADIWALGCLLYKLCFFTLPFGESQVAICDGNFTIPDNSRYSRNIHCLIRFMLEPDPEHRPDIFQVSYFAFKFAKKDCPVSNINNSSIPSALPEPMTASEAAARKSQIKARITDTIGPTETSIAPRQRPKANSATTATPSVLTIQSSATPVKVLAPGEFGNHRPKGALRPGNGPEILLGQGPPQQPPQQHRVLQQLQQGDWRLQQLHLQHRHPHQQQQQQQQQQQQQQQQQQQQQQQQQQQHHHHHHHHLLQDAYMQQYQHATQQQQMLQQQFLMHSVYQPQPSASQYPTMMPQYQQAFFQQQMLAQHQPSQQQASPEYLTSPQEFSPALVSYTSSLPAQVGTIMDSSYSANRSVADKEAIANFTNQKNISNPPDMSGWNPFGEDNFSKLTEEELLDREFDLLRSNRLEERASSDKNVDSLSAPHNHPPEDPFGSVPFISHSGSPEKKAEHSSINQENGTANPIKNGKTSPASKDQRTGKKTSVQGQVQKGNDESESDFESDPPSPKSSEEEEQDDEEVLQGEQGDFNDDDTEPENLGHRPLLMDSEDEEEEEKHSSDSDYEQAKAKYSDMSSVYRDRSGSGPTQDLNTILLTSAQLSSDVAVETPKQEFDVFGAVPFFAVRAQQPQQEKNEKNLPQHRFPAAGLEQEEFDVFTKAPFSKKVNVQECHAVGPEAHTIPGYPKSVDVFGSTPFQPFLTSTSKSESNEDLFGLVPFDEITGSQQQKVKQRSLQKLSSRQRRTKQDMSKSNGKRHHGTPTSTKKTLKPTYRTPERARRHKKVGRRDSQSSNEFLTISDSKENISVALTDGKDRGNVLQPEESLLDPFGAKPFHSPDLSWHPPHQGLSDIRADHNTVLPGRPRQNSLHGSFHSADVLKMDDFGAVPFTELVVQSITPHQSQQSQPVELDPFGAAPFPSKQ
UniProt Q0JRZ9: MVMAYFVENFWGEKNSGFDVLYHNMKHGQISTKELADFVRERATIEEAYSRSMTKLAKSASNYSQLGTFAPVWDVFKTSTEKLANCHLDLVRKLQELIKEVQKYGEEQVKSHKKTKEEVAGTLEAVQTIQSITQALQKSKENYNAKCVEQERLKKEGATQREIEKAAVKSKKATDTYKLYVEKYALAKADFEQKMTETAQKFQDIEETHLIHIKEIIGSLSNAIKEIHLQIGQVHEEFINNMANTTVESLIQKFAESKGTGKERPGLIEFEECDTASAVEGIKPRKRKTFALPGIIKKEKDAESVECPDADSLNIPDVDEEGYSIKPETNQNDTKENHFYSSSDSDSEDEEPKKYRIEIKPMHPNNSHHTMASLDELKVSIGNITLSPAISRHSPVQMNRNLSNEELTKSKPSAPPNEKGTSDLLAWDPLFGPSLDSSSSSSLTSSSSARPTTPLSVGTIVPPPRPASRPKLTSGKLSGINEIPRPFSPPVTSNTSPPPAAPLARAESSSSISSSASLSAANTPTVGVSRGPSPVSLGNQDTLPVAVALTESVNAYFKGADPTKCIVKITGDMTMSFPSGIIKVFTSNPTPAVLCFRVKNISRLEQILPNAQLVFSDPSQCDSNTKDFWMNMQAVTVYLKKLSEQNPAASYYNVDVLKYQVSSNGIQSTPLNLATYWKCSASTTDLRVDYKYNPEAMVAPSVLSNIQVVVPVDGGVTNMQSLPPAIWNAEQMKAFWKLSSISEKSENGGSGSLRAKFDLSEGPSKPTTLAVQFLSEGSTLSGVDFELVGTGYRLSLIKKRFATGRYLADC

No constants are given. Whether binding was seen depends on the method and setting. In cells and extracts the contact can be indirect. A yes stands for co-enrichment or nearness to the bait. Other partners may have been found.

Assay [1] deals with HA-tagged AP2σ2 p.Arg10Trp variant (human) (UniProt P53680). Briefly: affinity purification with mass spectrometry.
Assay [2] concerns the target HA-tagged wild-type AP2σ2 (Adaptor-Related Protein Complex 2 Sigma-1 Subunit) (human) (UniProt P53680). In words: affinity purification with mass spectrometry.

For “Bone morphogenic protein-2 inducible protein kinase (from UniProt Q9NSY1 1-1161)”, the binding result in assay [1] and in assay [2] was “binds” in each case.

“Fes/CIP4 homology and mu domain containing endocytic adaptor 2 (from UniProt Q0JRZ9 1-810)”: the binding entry in assay [1] and in assay [2] was “binds” each time.

For the molecule “Intersectin 1 (as identified by LC-MS/MS, isoform not told) (from UniProt Q15811-2)”, in assay [2], the binding result is “binds”.

B1: AP3 subunit beta-1 (protein, UniProt O00203 1-1094)
chain: MSSNSFPYNEQSGGGEATELGQEATSTISPSGAFGLFSSDLKKNEDLKQMLESNKDSAKLDAMKRIVGMIAKGKNASELFPAVVKNVASKNIEIKKLVYVYLVRYAEEQQDLALLSISTFQRALKDPNQLIRASALRVLSSIRVPIIVPIMMLAIKEASADLSPYVRKNAAHAIQKLYSLDPEQKEMLIEVIEKLLKDKSTLVAGSVVMAFEEVCPDRIDLIHKNYRKLCNLLVDVEEWGQVVIIHMLTRYARTQFVSPWKEGDELEDNGKNFYESDDDQKEKTDKKKKPYTMDPDHRLLIRNTKPLLQSRNAAVVMAVAQLYWHISPKSEAGIISKSLVRLLRSNREVQYIVLQNIATMSIQRKGMFEPYLKSFYVRSTDPTMIKTLKLEILTNLANEANISTLLREFQTYVKSQDKQFAAATIQTIGRCATNILEVTDTCLNGLVCLLSNRDEIVVAESVVVIKKLLQMQPAQHGEIIKHMAKLLDSITVPVARASILWLIGENCERVPKIAPDVLRKMAKSFTSEDDLVKLQILNLGAKLYLTNSKQTKLLTQYILNLGKYDQNYDIRDRTRFIRQLIVPNVKSGALSKYAKKIFLAQKPAPLLESPFKDRDHFQLGTLSHTLNIKATGYLELSNWPEVAPDPSVRNVEVIELAKEWTPAGKAKQENSAKKFYSESEEEEDSSDSSSDSESESGSESGEQGESGEEGDSNEDSSEDSSSEQDSESGRESGLENKRTAKRNSKAKGKSDSEDGEKENEKSKTSDSSNDESSSIEDSSSDSESESEPESESESRRVTKEKEKKTKQDRTPLTKDVSLLDLDDFNPVSTPVALPTPALSPSLMADLEGLHLSTSSSVISVSTPAFVPTKTHVLLHRMSGKGLAAHYFFPRQPCIFGDKMVSIQITLNNTTDRKIENIHIGEKKLPIGMKMHVFNPIDSLEPEGSITVSMGIDFCDSTQTASFQLCTKDDCFNVNIQPPVGELLLPVAMSEKDFKKEQGVLTGMNETSAVIIAAPQNFTPSVIFQKVVNVANVGAVPSGQDNIHRFAAKTVHSGSLMLVTVELKEGSTAQLIINTEKTVIGSVLLRELKPVLSQG
As to B1, the binding entry in assay [1] and in assay [2] was “binds” in each case.

B2: RalA binding protein 1-associated Eps domain containing protein 1 (protein, UniProt Q96D71 1-796)
chain: MEGLTLSDAEQKYYSDLFSYCDIESTKKVVVNGRVLELFRAAQLPNDVVLQIMELCGATRLGYFGRSQFYIALKLVAVAQSGFPLRVESINTVKDLPLPRFVASKNEQESRHAASYSSDSENQGSYSGVIPPPPGRGQVKKGSVSHDTVQPRTSADAQEPASPVVSPQQSPPTSPHTWRKHSRHPSGGNSERPLAGPGPFWSPFGEAQSGSSAGDAVWSGHSPPPPQENWVSFADTPPTSTLLTMHPASVQDQTTVRTVASATTAIEIRRQSSSYDDPWKITDEQRQYYVNQFKTIQPDLNGFIPGSAAKEFFTKSKLPILELSHIWELSDFDKDGALTLDEFCAAFHLVVARKNGYDLPEKLPESLMPKLIDLEDSADVGDQPGEVGYSGSPAEAPPSKSPSMPSLNQTWPELNQSSEQWETFSERSSSSQTLTQFDSNIAPADPDTAIVHPVPIRMTPSKIHMQEMELKRTGSDHTNPTSPLLVKPSDLLEENKINSSVKFASGNTVADGYSSSDSFTSDPEQIGSNVTRQRSHSGTSPDNTAPPPPPPRPQPSHSRSSSLDMNRTFTVTTGQQQAGVVAHPPAVPPRPQPSQAPGPAVHRPVDADGLITHTSTSPQQIPEQPNFADFSQFEVFAASNVNDEQDDEAEKHPEVLPAEKASDPASSLRVAKTDSKTEEKTAASAPANVSKGTTPLAPPPKPVRRRLKSEDELRPEVDEHTQKTGVLAAVLASQPSIPRSVGKDKKAIQASIRRNKETNTVLARLNSELQQQLKDVLEERISLEVQLEQLRPFSHL
Consider B2, for which the binding result in assay [1] and in assay [2] was “binds” throughout.
